Test results as given in US6410558B1, “Fungicides for the control of take-all disease of plants” (Monsanto Technology LLC, priority 1991, dated 2002).
Some entries share one result that the patent states for a list of compounds. For at least one compound, name, drawing or mass did not settle the structure.

tested on: Gg; assay: Field Tests: seed treatment of wheat and barley in previously infested fields; format: in vivo, Gaeumannomyces graminis; conditions: mixed with wheat and barley seed at 0.01 to 50 g active ingredient per kg of seed

Compound | incidence of Gg in previously infested fields compared to check fields seeded with untreated seed
C/C=C\NC(=O)c1c(Cl)cccc1[Si](C)(C)C [Example 112, (Z)-2-Chloro-N-1-propenyl-6-(trimethylsilyl)benzamide] | reduce the incidence of Gg
CCC(C)SC(=O)c1c(Cl)cccc1[Si](C)(C)C (stereo not drawn) [Example 80, 2-Chloro-6-(trimethylsilyl)-benzenecarbothioic acid, S-(1-methylpropyl) ester] | reduce the incidence of Gg
CCNC(=O)c1c(F)cccc1SC(C)(C)C [Example 90] | reduce the incidence of Gg
CCN(Cc1ccco1)C(=O)c1c(Cl)cccc1[Si](C)(C)C [Example 125, 2-Chloro-N-ethyl-N-(2-furylmethyl)-6-(trimethylsilyl)benzamide] | reduce the incidence of Gg
CCNC(=O)c1sc(I)cc1[Si](C)(C)C [Example 257, N-Ethyl-5-iodo-3-(trimethylsilyl)-2-thiophenecarboxamide] | reduce the incidence of Gg
CCN(CC)C(=O)c1ccccc1[Si](C)(C)C [Example 2, N,N-Diethyl-2-(trimethylsilyl)benzamide] | reduce the incidence of Gg
CCOCCN(CC)C(=O)c1c(Cl)cccc1[Si](C)(C)C [Example 128, 2-Chloro-N-(2-ethoxyethyl)-N-ethyl-6-(trimethylsilyl)benzamide] | reduce the incidence of Gg
CCN(CC)C(=O)c1cccc(F)c1[Si](C)(C)C [Example 4, N,N-Diethyl-3-fluoro-2-(trimethylsilyl)benzamide] | reduce the incidence of Gg
CCCN(C(=O)c1c(Cl)cccc1[Si](C)(C)C)C(C)C [Example 95, 2-Chloro-N-(1-methylethyl)-N-propyl-6-(trimethylsilyl)benzamide] | reduce the incidence of Gg
CCNC(=O)c1c([Si](C)(C)C)ccc(C=O)c1Cl [Example 223, 2-Chloro-N-ethyl-3-formyl-6-(trimethylsilyl)benzamide] | reduce the incidence of Gg
CNC(=O)c1c(Cl)cccc1[Si](C)(C)C [Example 19, 2-Chloro-N-methyl-6-(trimethylsilyl)-benzamide] | reduce the incidence of Gg
CCNC(=O)c1c(F)cccc1[S+]([O-])C(C)(C)C (centres unmarked) [Example 194, 2-[(1,1-Dimethylethyl)sulfinyl]-N-ethyl-6-fluorobenzamide] | reduce the incidence of Gg
CN(CC=Cc1ccccc1)C(=O)c1c(Cl)cccc1[Si](C)(C)C [Example 105, 2-Chloro-N-methyl-N-(3-phenyl-2-propenyl)-6-(trimethylsilyl)benzamide] | reduce the incidence of Gg
CC(C)NC(=O)c1c(Cl)cccc1[Si](C)(C)C [Example 21, 2-Chloro-N-(1-methylethyl)-6-(trimethylsilyl) benzarnide] | reduce the incidence of Gg
CCNC(=O)c1cc(Cl)ccc1[Si](C)(C)C [Example 213, 5-Chloro-N-ethyl-2-(trimethylsilyl)benzamide] | reduce the incidence of Gg
CCN=C(SCC)c1c(Cl)cccc1[Si](C)(C)C [Example 169, 2-Chloro-N-ethyl-6-(trimethylsilyl)benzenecarboximidothioic acid, ethyl ester] | reduce the incidence of Gg
CCNC(=O)c1c(Cl)ccc(Cl)c1[Si](C)(C)C [Example 200, 3,6-Dichloro-N-ethyl-2-(trimethylsilyl)benzamide] | reduce the incidence of Gg
C[Si](C)(C)c1cccc(Cl)c1C(=O)NC(c1ccccc1)n1nnc2ccccc21 (centres unmarked) [Example 170, N-(1H-Benzotriazol-1-ylphenylmethyl)-2-chloro-6-(trimethylsilyl)benzamide] | reduce the incidence of Gg
CCNC(=O)c1c(Cl)cccc1NC(C)(C)C [Example 192, 2-Chloro-6-[(1,1-dimethylethyl)amino]-N-ethylbenzamide] | reduce the incidence of Gg
C[Si](C)(C)c1cccc(Cl)c1C(=O)NCc1ccc([N+](=O)[O-])cc1 [Example 137, 2-Chloro-N-[(4-nitrophenyl)-methyl]-6-(trimethylsilyl)-benzamide] | reduce the incidence of Gg
CCNC(=O)c1c([Si](C)(C)C)ccc(I)c1Cl [Example 239, 2-Chloro-N-ethyl-3-iodo-6-(trimethylsilyl)benzamide] | reduce the incidence of Gg

Compound | incidence of Gg in previously infested fields compared to check fields seeded with untreated seed
CC(C)N(C(=O)c1c(Cl)cccc1[Si](C)(C)C)C(C)C [Example 126, 2-Chloro-N,N-bis(1-methylethyl)-6-(trimethylsilyl)benzamide] | reduce the incidence of Gg
CCNC(=O)c1ccccc1[Si](C)(C)C [Example 49, N-Ethyl-2-(trimethylsilyl)benzamide] | reduce the incidence of Gg
CCN(CC)C(=O)c1cccc(C)c1[Si](C)(C)C [Example 64, N,N-diethyl-3-methyl-2-(trimethylsilyl)benzamide] | reduce the incidence of Gg
CCN(CC)C(=O)c1c([Si](C)(C)C)ccc(C)c1Cl [Example 65, N,N-Diethyl-2-chloro-3-methyl-6-(trimethylsilyl)benzamide] | reduce the incidence of Gg
CCNC(=O)c1c(F)cccc1S(=O)(=O)C(C)(C)C [Example 280, 2-[(1,1-Dimethylethyl)sulfonyl]-N-ethyl-6-fluorobenzamide] | reduce the incidence of Gg
CCN(CC)C(=S)c1c(C)cccc1[Si](C)(C)C [Example 51, N,N-Diethyl-2-methyl-6-(trimethylsilyl)thiobenzamide] | reduce the incidence of Gg
CCN(Cc1ccccc1)C(=O)c1c(Cl)cccc1[Si](C)(C)C [Example 35, 2-Chloro-N-ethyl-N-(phenylmethyl)-6-(trimethylsilyl)benzamide] | reduce the incidence of Gg
CCNC(=O)c1c(F)cccc1C1(C)CCCC1 [Example 123, N-Ethyl-2-fluoro-6-(1-methylcyclopentyl)benzamide] | reduce the incidence of Gg
CCN(C)C(=O)c1c(Cl)cccc1[Si](C)(C)C [Example 22, 2-Chloro-N-ethyl-N-methyl-6-(trimethylsilyl)benzamide] | reduce the incidence of Gg
C[Si](C)(C)c1cccc(Cl)c1C(=O)NC1CCC1 [Example 163, 2-Chloro-N-cyclobutyl-6-(trimethylsilyl)benzamide] | reduce the incidence of Gg
CN(Cc1ccc(C(F)(F)F)cc1)C(=O)c1c(Cl)cccc1[Si](C)(C)C [Example 103, 2-Chloro-N-methyl-N-[[4-(trifluoromethyl)phenyl]-methyl]-6-(trimethylsilyl)-benzamide] | reduce the incidence of Gg
C[Si](C)(C)c1cccc(Cl)c1C(=O)NCCF [Example 155, 2-Chloro-N-(2-fluoroethyl)-6-(trimethylsilyl)benzamide] | reduce the incidence of Gg
CCNC(=O)c1c([Si](C)(C)C)ccc(C#C[Si](C)(C)C)c1Cl [Example 276, 2-Chloro-N-ethyl-6-(trimethylsilyl)-3-[(trimethylsilyl)ethynyl]benzamide] | reduce the incidence of Gg
C=CCNC(=O)NC(=O)c1c(Cl)cccc1[Si](C)(C)C [Example 165, 2-Chloro-N-[(2-propenylamino)carbonyl]-6-(trimethylsilyl)benzamide] | reduce the incidence of Gg
CCN(CC)C(=O)c1c(Cl)ccc(C)c1[Si](C)(C)C [Example 71, N,N-Diethyl-6-chloro-3-methyl-2-(trimethylsilyl)benzamide] | reduce the incidence of Gg
CCNC(=O)c1c(Cl)cc(C=O)cc1[Si](C)(C)C [Example 193, 2-Chloro-N-ethyl-4-formyl-6-(trimethylsilyl)benzamide] | reduce the incidence of Gg
C#CC(C)(C)NC(=O)c1c(Cl)cccc1[Si](C)(C)C [Example 107, 2-Chloro-N-(1,1-dimethyl-2-propynyl)-6-(trimethylsilyl)benzamide] | reduce the incidence of Gg
CC(C)N(C)C(=O)c1c(Cl)cccc1[Si](C)(C)C [Example 164, 2-Chloro-N-methyl-N-(1-methylethyl)-6-(trimethylsilyl)benzamide] | reduce the incidence of Gg
C=CCN(SC)C(=O)c1sc(Cl)cc1[Si](C)(C)C [Example 273, 5-Chloro-N-(methylthio)-N-2-propenyl-3-(trimethylsilyl)-2-thiophenecarboxamide] | reduce the incidence of Gg
CCN(CC)C(=O)c1c(C=O)ccc(F)c1[Si](C)(C)C [Example 41, N,N-Diethyl-3-fluoro-6-formyl-2-(trimethylsilyl)benzamide] | reduce the incidence of Gg
